# From the supplement of paper PMC12819154, “High-throughput peptide-centric local stability assay extends protein–ligand identification to membrane proteins, tissues and bacteria” (Nature Structural & Molecular Biology, 2025)
# Sequences of proteins named here, by UniProt entry; tags and fusion partners are left off. A change or cut given only in a name is not applied to a line headed by its entry.
# UniProt Q96GC9: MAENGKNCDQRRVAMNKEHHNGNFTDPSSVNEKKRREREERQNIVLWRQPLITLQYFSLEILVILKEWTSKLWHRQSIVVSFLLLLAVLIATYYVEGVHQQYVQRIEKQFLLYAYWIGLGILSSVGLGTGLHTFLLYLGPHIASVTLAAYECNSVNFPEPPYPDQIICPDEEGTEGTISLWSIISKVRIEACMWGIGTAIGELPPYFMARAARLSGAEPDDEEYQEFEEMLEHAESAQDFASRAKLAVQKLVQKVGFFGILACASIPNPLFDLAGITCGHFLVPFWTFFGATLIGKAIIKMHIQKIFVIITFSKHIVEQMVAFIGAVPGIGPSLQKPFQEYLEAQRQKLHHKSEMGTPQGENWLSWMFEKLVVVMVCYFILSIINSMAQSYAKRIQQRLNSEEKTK
# UniProt Q96NY9: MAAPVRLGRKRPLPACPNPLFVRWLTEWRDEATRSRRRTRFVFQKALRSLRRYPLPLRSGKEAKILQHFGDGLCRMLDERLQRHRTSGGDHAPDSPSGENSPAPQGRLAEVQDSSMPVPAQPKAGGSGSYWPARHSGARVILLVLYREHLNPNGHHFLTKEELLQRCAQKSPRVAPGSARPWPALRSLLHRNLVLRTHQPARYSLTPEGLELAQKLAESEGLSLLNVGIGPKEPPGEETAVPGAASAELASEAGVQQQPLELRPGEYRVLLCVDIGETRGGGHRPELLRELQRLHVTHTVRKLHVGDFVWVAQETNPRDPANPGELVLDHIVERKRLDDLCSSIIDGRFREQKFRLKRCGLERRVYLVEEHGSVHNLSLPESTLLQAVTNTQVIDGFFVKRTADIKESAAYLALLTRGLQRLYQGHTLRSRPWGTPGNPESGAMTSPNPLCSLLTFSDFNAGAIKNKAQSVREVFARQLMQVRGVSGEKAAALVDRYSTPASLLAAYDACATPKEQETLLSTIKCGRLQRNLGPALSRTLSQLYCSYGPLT
# UniProt Q96IC2: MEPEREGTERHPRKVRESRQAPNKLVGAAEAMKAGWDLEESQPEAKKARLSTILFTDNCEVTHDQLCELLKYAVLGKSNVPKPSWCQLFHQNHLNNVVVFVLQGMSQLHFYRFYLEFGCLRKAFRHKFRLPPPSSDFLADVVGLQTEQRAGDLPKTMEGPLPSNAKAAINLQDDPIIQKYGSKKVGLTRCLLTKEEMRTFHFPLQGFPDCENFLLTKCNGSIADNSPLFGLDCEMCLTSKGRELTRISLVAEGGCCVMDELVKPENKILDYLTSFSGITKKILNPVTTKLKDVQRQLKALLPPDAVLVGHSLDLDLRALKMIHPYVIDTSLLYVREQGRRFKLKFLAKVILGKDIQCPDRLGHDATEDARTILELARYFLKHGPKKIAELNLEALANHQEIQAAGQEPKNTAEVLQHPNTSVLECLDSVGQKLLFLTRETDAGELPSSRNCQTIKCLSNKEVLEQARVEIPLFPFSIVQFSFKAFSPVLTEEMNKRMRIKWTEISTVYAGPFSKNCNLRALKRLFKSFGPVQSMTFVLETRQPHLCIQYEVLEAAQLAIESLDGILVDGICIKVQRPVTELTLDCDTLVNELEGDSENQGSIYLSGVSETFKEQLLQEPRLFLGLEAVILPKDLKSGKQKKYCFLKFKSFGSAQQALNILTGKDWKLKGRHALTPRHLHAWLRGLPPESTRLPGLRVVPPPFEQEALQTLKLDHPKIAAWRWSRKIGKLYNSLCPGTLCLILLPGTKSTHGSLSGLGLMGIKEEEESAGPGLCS
# UniProt Q96GE5: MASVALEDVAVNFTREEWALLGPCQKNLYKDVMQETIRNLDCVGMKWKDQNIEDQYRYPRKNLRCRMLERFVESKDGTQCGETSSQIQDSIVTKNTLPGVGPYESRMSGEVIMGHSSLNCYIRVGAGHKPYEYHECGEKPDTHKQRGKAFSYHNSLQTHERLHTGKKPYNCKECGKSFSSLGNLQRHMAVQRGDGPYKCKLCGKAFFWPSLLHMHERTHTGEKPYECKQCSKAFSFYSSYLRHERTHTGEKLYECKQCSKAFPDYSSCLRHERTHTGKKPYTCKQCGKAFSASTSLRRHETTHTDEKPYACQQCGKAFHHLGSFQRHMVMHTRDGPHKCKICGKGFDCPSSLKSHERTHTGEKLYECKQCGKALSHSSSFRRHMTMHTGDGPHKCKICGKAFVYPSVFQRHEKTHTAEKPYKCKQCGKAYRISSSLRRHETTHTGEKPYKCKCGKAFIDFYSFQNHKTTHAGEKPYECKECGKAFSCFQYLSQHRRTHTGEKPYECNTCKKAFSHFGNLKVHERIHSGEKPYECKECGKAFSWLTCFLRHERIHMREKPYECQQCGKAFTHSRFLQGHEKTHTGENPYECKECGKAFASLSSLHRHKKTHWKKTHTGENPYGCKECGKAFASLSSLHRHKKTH
# UniProt Q96HC4: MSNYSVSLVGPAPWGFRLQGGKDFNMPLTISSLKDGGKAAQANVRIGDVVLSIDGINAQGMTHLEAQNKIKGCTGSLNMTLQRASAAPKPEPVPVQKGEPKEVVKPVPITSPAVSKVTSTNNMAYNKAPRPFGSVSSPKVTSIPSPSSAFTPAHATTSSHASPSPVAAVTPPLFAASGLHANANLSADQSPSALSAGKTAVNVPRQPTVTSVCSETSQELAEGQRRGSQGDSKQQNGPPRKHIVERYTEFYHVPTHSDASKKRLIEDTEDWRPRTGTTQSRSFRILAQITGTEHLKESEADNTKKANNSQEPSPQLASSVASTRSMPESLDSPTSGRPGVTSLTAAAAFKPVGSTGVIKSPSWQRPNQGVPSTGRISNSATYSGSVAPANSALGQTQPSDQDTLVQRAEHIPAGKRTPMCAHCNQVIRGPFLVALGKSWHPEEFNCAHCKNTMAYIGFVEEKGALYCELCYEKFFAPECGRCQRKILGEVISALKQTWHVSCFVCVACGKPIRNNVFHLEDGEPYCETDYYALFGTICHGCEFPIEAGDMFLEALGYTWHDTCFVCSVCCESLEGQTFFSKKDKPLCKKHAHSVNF
# UniProt Q96LZ2: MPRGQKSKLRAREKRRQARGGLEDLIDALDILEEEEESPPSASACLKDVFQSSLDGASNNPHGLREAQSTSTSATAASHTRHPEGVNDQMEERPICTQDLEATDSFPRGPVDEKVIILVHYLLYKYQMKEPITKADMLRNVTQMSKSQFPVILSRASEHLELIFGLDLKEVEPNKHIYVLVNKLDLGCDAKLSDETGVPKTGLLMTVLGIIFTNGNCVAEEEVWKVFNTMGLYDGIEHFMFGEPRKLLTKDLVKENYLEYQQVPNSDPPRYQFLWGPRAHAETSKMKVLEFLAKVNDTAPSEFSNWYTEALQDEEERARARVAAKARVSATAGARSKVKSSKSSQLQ
# UniProt Q96ME1: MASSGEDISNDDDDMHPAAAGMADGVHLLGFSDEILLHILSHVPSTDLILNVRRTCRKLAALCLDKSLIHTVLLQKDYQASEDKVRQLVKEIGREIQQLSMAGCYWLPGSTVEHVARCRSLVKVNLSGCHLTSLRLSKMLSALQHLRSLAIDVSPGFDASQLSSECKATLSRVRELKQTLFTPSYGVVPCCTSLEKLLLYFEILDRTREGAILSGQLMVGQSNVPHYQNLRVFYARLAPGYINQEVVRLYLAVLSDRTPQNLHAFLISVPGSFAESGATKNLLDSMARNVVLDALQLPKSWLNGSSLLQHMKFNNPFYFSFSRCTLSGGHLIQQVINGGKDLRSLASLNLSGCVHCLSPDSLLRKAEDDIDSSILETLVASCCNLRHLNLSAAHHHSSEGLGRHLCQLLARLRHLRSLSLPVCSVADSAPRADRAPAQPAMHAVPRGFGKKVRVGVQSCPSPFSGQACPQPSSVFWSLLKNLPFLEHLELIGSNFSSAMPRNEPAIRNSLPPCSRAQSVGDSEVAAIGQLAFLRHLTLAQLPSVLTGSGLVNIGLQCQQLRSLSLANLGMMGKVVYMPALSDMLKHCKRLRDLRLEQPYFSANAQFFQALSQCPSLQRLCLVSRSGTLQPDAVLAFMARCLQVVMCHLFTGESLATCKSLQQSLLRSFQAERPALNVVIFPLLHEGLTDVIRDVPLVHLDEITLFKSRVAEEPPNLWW
# UniProt Q96MK2: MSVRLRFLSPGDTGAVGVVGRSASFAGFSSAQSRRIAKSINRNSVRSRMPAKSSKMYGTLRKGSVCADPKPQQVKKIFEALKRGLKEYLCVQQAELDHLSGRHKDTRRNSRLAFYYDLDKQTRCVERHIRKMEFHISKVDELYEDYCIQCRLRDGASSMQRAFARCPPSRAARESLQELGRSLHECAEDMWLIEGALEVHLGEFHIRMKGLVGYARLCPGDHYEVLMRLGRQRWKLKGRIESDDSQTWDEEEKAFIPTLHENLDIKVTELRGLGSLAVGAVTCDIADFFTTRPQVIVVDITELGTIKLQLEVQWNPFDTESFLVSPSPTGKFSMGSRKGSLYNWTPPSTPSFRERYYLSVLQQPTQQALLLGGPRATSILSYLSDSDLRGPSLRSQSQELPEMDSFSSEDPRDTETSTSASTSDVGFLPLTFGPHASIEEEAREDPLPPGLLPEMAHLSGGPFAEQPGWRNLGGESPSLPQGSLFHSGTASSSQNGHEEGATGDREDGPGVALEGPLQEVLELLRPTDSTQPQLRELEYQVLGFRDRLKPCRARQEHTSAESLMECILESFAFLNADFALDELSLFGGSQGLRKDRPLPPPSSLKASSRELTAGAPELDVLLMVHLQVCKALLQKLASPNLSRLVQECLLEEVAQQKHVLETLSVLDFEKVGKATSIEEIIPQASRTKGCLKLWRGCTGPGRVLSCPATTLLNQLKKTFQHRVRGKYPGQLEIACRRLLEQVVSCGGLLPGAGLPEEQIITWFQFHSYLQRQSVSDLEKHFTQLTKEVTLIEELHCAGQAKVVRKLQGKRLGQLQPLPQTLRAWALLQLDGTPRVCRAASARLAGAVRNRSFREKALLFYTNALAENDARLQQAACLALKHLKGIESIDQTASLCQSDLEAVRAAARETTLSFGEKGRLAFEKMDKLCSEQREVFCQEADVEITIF
# UniProt Q96JM7: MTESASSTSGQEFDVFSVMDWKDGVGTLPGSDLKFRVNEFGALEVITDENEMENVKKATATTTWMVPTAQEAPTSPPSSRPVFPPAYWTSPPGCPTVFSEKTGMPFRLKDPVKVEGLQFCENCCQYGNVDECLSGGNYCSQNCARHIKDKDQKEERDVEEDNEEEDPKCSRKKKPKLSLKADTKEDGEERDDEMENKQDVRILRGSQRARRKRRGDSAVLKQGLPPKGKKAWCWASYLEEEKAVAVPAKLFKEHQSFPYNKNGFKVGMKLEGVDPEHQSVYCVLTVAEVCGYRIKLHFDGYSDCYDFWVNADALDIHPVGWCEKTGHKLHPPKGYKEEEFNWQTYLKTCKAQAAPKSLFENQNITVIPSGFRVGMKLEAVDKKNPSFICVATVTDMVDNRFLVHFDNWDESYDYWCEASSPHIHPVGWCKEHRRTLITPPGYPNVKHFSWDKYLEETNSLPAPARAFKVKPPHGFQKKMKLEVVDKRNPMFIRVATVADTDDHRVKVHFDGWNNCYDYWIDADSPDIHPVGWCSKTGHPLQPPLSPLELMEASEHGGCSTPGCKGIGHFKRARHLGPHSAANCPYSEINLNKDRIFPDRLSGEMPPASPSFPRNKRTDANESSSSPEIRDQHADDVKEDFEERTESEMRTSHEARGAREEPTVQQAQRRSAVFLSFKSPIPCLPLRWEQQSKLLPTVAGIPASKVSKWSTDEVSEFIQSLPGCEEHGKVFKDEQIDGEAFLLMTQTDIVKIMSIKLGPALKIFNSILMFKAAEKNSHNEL
# UniProt Q96FF9: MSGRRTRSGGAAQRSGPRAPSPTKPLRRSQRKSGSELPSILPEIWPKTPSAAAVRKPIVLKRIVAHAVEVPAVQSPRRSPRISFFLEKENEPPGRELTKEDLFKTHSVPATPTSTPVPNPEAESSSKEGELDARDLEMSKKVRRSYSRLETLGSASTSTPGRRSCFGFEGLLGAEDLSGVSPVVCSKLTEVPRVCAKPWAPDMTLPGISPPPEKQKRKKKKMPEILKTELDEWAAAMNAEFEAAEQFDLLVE
# UniProt Q96GK7: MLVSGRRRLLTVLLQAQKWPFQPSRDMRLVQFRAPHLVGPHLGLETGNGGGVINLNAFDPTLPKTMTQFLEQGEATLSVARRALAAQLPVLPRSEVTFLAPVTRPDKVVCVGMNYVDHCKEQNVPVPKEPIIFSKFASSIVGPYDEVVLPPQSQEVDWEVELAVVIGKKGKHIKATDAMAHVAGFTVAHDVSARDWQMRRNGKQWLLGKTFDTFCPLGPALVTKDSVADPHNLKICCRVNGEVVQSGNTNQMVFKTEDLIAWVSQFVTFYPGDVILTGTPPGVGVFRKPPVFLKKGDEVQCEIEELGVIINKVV
# UniProt Q96G25: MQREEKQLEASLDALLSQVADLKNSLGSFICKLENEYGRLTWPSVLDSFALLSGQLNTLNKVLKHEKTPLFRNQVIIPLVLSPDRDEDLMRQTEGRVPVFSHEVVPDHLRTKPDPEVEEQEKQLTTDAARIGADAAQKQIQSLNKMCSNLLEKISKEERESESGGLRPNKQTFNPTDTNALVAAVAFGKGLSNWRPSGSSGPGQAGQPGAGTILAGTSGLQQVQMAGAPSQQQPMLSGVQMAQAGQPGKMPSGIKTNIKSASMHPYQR
# The other results are listed elsewhere or left out. Most entries show no effect beyond the scatter of the controls.
# Compound: Cc1nc(Nc2ncc(C(=O)Nc3c(C)cccc3Cl)s2)cc(N2CCN(CCO)CC2)n1 [dasatinib]
# Experiment: log2 fold change of tryptic peptide abundance, ligand vs vehicle (limited proteolysis) (log2 ratio); higher = more trypsin-susceptible (destabilized)
# Conditions: ligand concentration: 5 uM; sample: K562 cleared lysate
row,Target,log2 fold change
1,"KIF20B (peptide sequence: LEQDILEKESIILK, peptide start residue: 1183) (UniProt Q96Q89)",0.492
2,"UniProt Q96GC9 (peptide sequence: EHHNGNFTDPSSVNEKK, peptide start residue: 18)",0.307
3,"AJUBA (peptide sequence: LEPTAPALSPR, peptide start residue: 111) (UniProt Q96IF1)",0.462
4,"UniProt Q96JD6 (peptide sequence: NVIVIPGSITPSHIK, peptide start residue: 261)",-0.454
5,"UniProt Q96PU8 (peptide sequence: RSAELPDAVGPIVQLQEK, peptide start residue: 68)",-0.308
6,"CDKN2AIPNL (peptide sequence: QAADFAEQFR, peptide start residue: 19) (UniProt Q96HQ2)",-0.415
7,"MUS81 (peptide sequence: RLDDLCSSIIDGR, peptide start residue: 336) (UniProt Q96NY9)",-0.328
8,"REXO5 (peptide sequence: TMEGPLPSNAK, peptide start residue: 156) (UniProt Q96IC2)",-0.119
9,"UniProt Q96GE5 (peptide sequence: AFSYHNSLQTHER, peptide start residue: 149)",-1.14
10,"PDLIM5 (peptide sequence: RLIEDTEDWRPR, peptide start residue: 263) (UniProt Q96HC4)",0.0825
11,"MAGEB10 (peptide sequence: SQFPVILSR, peptide start residue: 147) (UniProt Q96LZ2)",0.238
12,"FBXL18 (peptide sequence: VNLSGCHLTSLR, peptide start residue: 124) (UniProt Q96ME1)",0.126
13,"CHMP6 (peptide sequence: VTEQDKAILQLK, peptide start residue: 13) (UniProt Q96FZ7)",-0.417
14,"UniProt Q96MK2 (peptide sequence: VLSCPATTLLNQLKK, peptide start residue: 703)",-0.752
15,"L3MBTL3 (peptide sequence: DQHADDVKEDFEER, peptide start residue: 630) (UniProt Q96JM7)",-0.894
16,"CDCA5 (peptide sequence: ISFFLEKENEPPGR, peptide start residue: 82) (UniProt Q96FF9)",-0.256
17,"FAHD2A (peptide sequence: RALAAQLPVLPR, peptide start residue: 82) (UniProt Q96GK7)",-0.11
18,"UniProt Q96RT1 (peptide sequence: DLKPHEDQQDINKDVGVK, peptide start residue: 517)",-0.821
19,"UniProt Q96QE5 (peptide sequence: SINIVEHR, peptide start residue: 96)",0.0821
20,"MED8 (peptide sequence: TKPDPEVEEQEK, peptide start residue: 111) (UniProt Q96G25)",0.194
21,"UniProt Q96JN0 (peptide sequence: SQSEPSEQDGVLDLSTKK, peptide start residue: 72)",0.319
22,"UniProt Q96GS4 (peptide sequence: GAPGAEHEPSLSSR, peptide start residue: 96)",-0.187
23,"BORCS8 (peptide sequence: SLPELAQHK, peptide start residue: 42) (UniProt Q96FH0)",-0.219
24,"ZC3H10 (peptide sequence: FIHGSKEDEDGYKK, peptide start residue: 94) (UniProt Q96K80)",-0.797
25,"WDR89 (peptide sequence: VHSNDSYKR, peptide start residue: 375) (UniProt Q96FK6)",0.552
26,"AGAP3 (peptide sequence: AAECKVDSIGSGR, peptide start residue: 353) (UniProt Q96P47)",0.441
27,"DDRGK1 (peptide sequence: EHEEYLK, peptide start residue: 185) (UniProt Q96HY6)",-0.241

# Not a retest: an excerpt of the list.
row,Target,log2 fold change
7,"MUS81 (peptide sequence: RLDDLCSSIIDGR, peptide start residue: 336) (UniProt Q96NY9)",-0.328
8,"REXO5 (peptide sequence: TMEGPLPSNAK, peptide start residue: 156) (UniProt Q96IC2)",-0.119
